54 compounds from PubChem BioAssay AID1487 (National Center for Advancing Translational Sciences (NCATS), 2009) can be followed below.

Several values for one entry are separate records, joined by “and”; a condition that tells them apart may be missing. Equal values may be shown once. Some of the results follow. The main result of the screen is listed elsewhere. These columns were measured beside it and carry no call. Most of these compounds were active or inconclusive in the main read-out, so they are no random draw. Words in brackets tell the shape of the fitted curve; partial curves, single points and poor fits give uncertain potencies.

A short description of this assay: qHTS Assay for Modulators of Lamin A Splicing. Conditions: HeLa LMNA splicing GFP/RFP minigene ratio, 48 h. Put shortly:
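Read-out is the ratio of GFP to DsRed2 object intensity, acquired by 488 nm laser-scanning cytometry on HeLa lamin A-EGFP minigene reporter cells. Compound incubation 48 hrs at 37 °C in Opti-MEM with 2% FBS; DMSO 0.5% final.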

[1] abbreviates: measured here: GFP splicing reporter channel.
Setting [2] is: measured here: RFP viability control channel.

The AC50 is the midpoint of the concentration-response curve, whichever way the signal moves.

Regarding `O=C(NCc1ccc(F)cc1)C(=O)NCC(c1cccs1)S(=O)(=O)c1cccs1` (configuration not stated), the AC50 under setting [1] was 3.16 µM [rising, partial curve, poor fit]. `COCCNc1cc(NCCOC)c([N+](=O)[O-])cc1[N+](=O)[O-]`: under setting [2], the half-maximal activity concentration (AC50) was 0.0794 µM [rising, full curve, poor fit]. With `CC1(C)CC(=O)C(C(C2=C(O)CC(C)(C)CC2=O)c2cccs2)C(=O)C1` (configuration not stated), the AC50 is, setting by setting: under setting [1], 12.6 µM [rising, single point]; under setting [2], 12.6 µM [rising, single point]. As to `Cc1ccc(NS(=O)(=O)c2ccc3[nH]c4c(c3c2)CCCCC4)cc1`, the AC50 by setting is: under setting [1], 22.4 µM [falling, single point]; under setting [2], 20 µM [falling, single point]. Regarding `CCC(=O)Nc1nc(C)c(-c2csc(Nc3ccccn3)n2)s1`, the concentration at half-maximal activity (AC50) under setting [1] was 35.5 µM [falling, single point]. For `CCC(=O)Nc1cccc(C(=O)/C=C/c2cc(Br)ccc2OC)c1`, the AC50 under setting [2] is 22.4 µM [falling, single point]. As to `CN(C1=C(NC(=O)c2ccc(Cl)cc2)C(=O)c2ccccc2C1=O)c1ccccc1`, the AC50 runs as follows: under setting [1], 31.6 µM [falling, partial curve]; under setting [2], 5.01 µM [falling, partial curve]. Turning to `CCOC(=O)C1=C(C)C(c2cccc(Oc3ccccc3)c2)NC(=S)N1` (configuration not stated), the AC50 under setting [2] was 25.1 µM [rising, partial curve]. In the case of `Cc1cccc(NCC(=O)N/N=C/c2cccc(Br)c2)c1`, the AC50 under setting [1] is 12.6 µM [falling, partial curve].

Turning to `O=C(COC(=O)c1cccc2c1C(=O)c1ccccc1C2=O)NC1CCCCC1`, the AC50 under setting [2] is 28.2 µM [rising, single point].

With `Cc1nnc(-c2cccc(Br)c2)c2cn(-c3ccc(Br)cc3)nc12`, the AC50 was 14.1 µM [falling, single point] under setting [1] and 20 µM [falling, single point] under setting [2]. Take `Cc1cc(SCC(=O)N2CCCC2)nc2ccccc12`: the AC50 is 20 µM [rising, partial curve] under setting [1] and 31.6 µM [rising, single point] under setting [2]. As to `Cn1c(=O)c(C(=O)COc2ccc(F)cc2Cl)c(N)n(Cc2ccccc2)c1=O`, the AC50 under setting [2] was 25.1 µM [rising, single point]. Take `O=C(Oc1c(CN2CCOCC2)cc(Cl)c2cccnc12)c1cccs1`: the AC50 by setting is: under setting [1], 10 µM [falling, partial curve]; under setting [2], 7.94 µM [falling, partial curve].

In the case of `CCc1nnc(NC(=O)CSc2nnc(-c3ccccc3O)n2-c2ccc(C)cc2)s1`, the AC50 under setting [1] was 7.08 µM [falling, single point].

Turning to `NS(=O)(=O)c1cnccc1Nc1ccc(Cl)c(Cl)c1`, the concentration at half-maximal activity (AC50) under setting [2] is 10 µM [rising, partial curve]. The same measure, in the same setting: in the case of `CCOC(=O)c1cnc2c(c(C)nn2C)c1Oc1ccccc1F` it was 11.2 µM [falling, partial curve].

Turning to `O=C(Nc1ccc(Cl)c([N+](=O)[O-])c1)c1cnccn1`, the AC50 is 0.794 µM [rising, partial curve] under setting [1] and 0.1 µM [rising, full curve, poor fit] under setting [2]. Turning to `O=C(O)Cn1nnnc1SCC(=O)Nc1ccc(F)cc1F`, the AC50 under setting [1] is 0.02 µM [falling, full curve, poor fit].

In the case of `CCNc1nc(NC(C)(C)C)nc(N2CCCCC2)n1`, the AC50 under setting [1] is 4.47 µM [falling, partial curve] and the AC50 under setting [2] was 11.2 µM [falling, partial curve].

As to `O=C(O/N=C1\C(=O)N(c2ccccc2)c2ccccc21)C1CC1`, the AC50 under setting [2] is 0.0316 µM [falling, full curve, poor fit]. As to `CCOc1ccc(S(=O)(=O)N2CCN(c3ccccc3OC)CC2)c2cccnc12`, the AC50 runs as follows: under setting [1], 12.6 µM [rising, partial curve]; under setting [2], 20 µM [rising, single point].

For `Cc1cc(O)cc(O)c1C(=O)Cc1ccccc1`, the AC50 under setting [1] is 7.94 µM [rising, partial curve] and the concentration at half-maximal activity (AC50) under setting [2] was 12.6 µM [rising, partial curve]. In the case of `CCOC(=O)C1(CCc2ccccc2)CCN(C(=O)c2cnc(C)cn2)CC1`, the AC50 under setting [2] was 7.94 µM [falling, partial curve, poor fit]. Still for that read-out and setting: in the case of `Cc1ccc(CC(=O)Nc2ccc(F)c([N+](=O)[O-])c2)cc1C` it was 14.1 µM [rising, partial curve]. As to `NC(=O)/C=C\C(=O)Nc1cccc(C(F)(F)F)c1`, the AC50 was 12.6 µM [falling, partial curve] under setting [1] and 22.4 µM [falling, partial curve] under setting [2].

For the compound `CCS(=O)(=O)NCCc1csc2nc(-c3ccc(C)cc3)nn12`, under setting [1], the AC50 is 0.0126 µM [falling, full curve, poor fit]. For the compound `CCCOc1ccccc1-c1nc2n[nH]nc2c(=O)[nH]1`, the AC50 was 3.16 µM [falling, partial curve] under setting [1]; 3.98 µM [falling, partial curve] and 4.47 µM [rising, single point] under setting [2]. For the compound `Fc1ccccc1C1c2cccn2CCN1C(=S)Nc1ccc(Br)cc1` (configuration not stated), the AC50 under setting [2] was 35.5 µM [rising, single point].

As for `CN(C)c1ccc(-c2cncnc2NCCN2CCOCC2)cc1`, the AC50 is 10 µM [falling, partial curve] under setting [1] and 10 µM [falling, partial curve] under setting [2]. In the case of `O=C(Nc1cccc(S(=O)(=O)N2CCCCCC2)c1)c1ccc2ccccc2n1`, the half-maximal activity concentration (AC50) under setting [2] was 35.5 µM [rising, single point]. Take `CCN(CC)C(=O)c1sc2c(c1C)c(=O)n(CCc1ccccc1)c(=O)n2Cc1cccc(Cl)c1`: the half-maximal activity concentration (AC50) under setting [1] is 35.5 µM [rising, single point]. On to `COc1ccccc1NC(=O)c1ccc(NC(=O)CSc2nnnn2C)cc1`, for which the AC50 under setting [2] is 6.31 µM [rising, single point]. On the same count and under the same terms, in the case of `COCCNS(=O)(=O)c1ccc(-c2ccc(C)cc2)cc1` it was 11.2 µM [rising, partial curve]. On the same count and under the same terms, in the case of `CN(C)c1ccc(CNC(=O)c2ccc3c(c2)N(C)C(=O)C2CCCCN32)cc1` (configuration not stated) it was 20 µM [rising, partial curve, poor fit].

As to `O=C(c1cnc(N2CCOCC2)c2ccccc12)N1CCN(c2ccccc2F)CC1`, the AC50 runs as follows: under setting [1], 35.5 µM [falling, partial curve]; under setting [2], 0.178 µM [falling, full curve, poor fit]. As to `O=c1nc2cccc3c2=c(/c1=C(\O)c1ccccc1)c1ccccc1c3=O`, under setting [1], the concentration at half-maximal activity (AC50) is 0.158 µM [falling, full curve, poor fit].

`Cc1cc(/C=C2/NC(=O)N(Cc3ccccc3F)C2=O)c(C)n1C(C)C`: the AC50 is 0.0794 µM [rising, partial curve, poor fit] under setting [1] and 12.6 µM [rising, single point] under setting [2].

On to `COc1ccc(N2C(=O)CS(=O)(=O)C23C(=O)N(Cc2c(F)cccc2Cl)c2ccccc23)cc1` (configuration not stated), for which, under setting [1], the AC50 was 0.794 µM [rising, partial curve].

As to `C/C(=N/NC(=O)c1sc(NS(=O)(=O)c2ccc(C)cc2)nc1C)c1sc(N)nc1C`, under setting [2], the AC50 was 0.501 µM [falling, full curve, poor fit]. The same measure, in the same setting: for `Cn1c(-c2ccc(F)cc2)cnc1SCC(=O)NNC(=O)Cc1ccccc1` the value was 6.31 µM [falling, partial curve, poor fit]. Turning to `Fc1cccc(/C=N/Nc2ccccn2)c1`, the AC50 is, setting by setting: under setting [1], 0.158 µM [falling, full curve, poor fit]; under setting [2], 0.158 µM [falling, full curve, poor fit].

On to `COc1ccc(-c2nn(-c3ccccc3)cc2/C=N/NC(N)=S)cc1OC`, for which the half-maximal activity concentration (AC50) reads like this: under setting [1], 35.5 µM [falling, single point]; under setting [2], 35.5 µM [falling, single point]. `Cc1ccc2c(c1)c1ncnc(N3CCc4ccccc4C3)c1n2C`: the AC50 under setting [1] is 12.6 µM [rising, single point] and the half-maximal activity concentration (AC50) under setting [2] is 22.4 µM [rising, single point]. For the compound `Cc1ccccc1C(=O)NC(C(=O)Nc1nc2c(s1)CCCC2)C(C)C` (configuration not stated), the AC50 under setting [2] was 12.6 µM [rising, single point]. On to `Cc1ccccc1OCCNc1ccc(C(F)(F)F)cc1[N+](=O)[O-]`, for which the concentration at half-maximal activity (AC50) runs as follows: under setting [1], 14.1 µM [falling, single point]; under setting [2], 10 µM [falling, partial curve]. Consider `Cc1c(C(=O)OCC(=O)N2c3ccccc3CC2C)oc2ccccc12` (configuration not stated), for which the AC50 under setting [1] was 14.1 µM [rising, single point]. Turning to `O=C1c2cccc3c([N+](=O)[O-])ccc(c23)C(=O)N1c1nccs1`, the AC50 under setting [1] is 22.4 µM [falling, single point]. The same measure, in the same setting: for `CC(=O)Nc1cccc(C(=O)OCC(=O)c2ccccc2Cl)c1` the value was 112 µM [falling, partial curve, poor fit].

As to `O=c1c2ccccc2nc(SCc2nnc(-c3ccccc3Br)o2)n1Cc1ccco1`, under setting [2], the AC50 is 22.4 µM [rising, partial curve]. `CC(C)Oc1ccc(CNC(=O)c2ccccc2NC(=O)c2nsc3ccccc23)cc1`: the AC50 is 1.78 µM [rising, single point] under setting [1] and 2.24 µM [rising, partial curve, poor fit] under setting [2]. `CC(=O)Oc1cccc(C)c1`: the AC50 under setting [1] is 2.82 µM [falling, partial curve, poor fit] and the AC50 under setting [2] was 35.5 µM [falling, single point]. Consider `O=C(CCn1c(=S)[nH]c2ccccc2c1=O)NCCSCc1ccccc1`, for which the half-maximal activity concentration (AC50) reads like this: under setting [1], 14.1 µM [falling, single point]; under setting [2], 35.5 µM [falling, single point]. For `CC(C)Oc1cccc(-c2cc(C(=O)N3CCN(S(C)(=O)=O)CC3)c3ccccc3n2)c1`, the concentration at half-maximal activity (AC50) under setting [1] was 10 µM [rising, partial curve, poor fit] and the AC50 under setting [2] is 11.2 µM [rising, partial curve].
